No constants are given. Whether binding was seen depends on the method and setting. Some results given as binding are weak or reduced against the parent protein; the word gives no strength.

Experiment [1] has as its target soluble CD19-Fc fusion protein (UniProt P15391). The experiment can be described thus: flow cytometry, transduced T cells incubated with CD19-Fc (0.5 and 1.0 ug), PE-conjugated anti-human IgG. On the technique in general: In flow cytometry, cells or beads pass a laser one at a time.
Experiment [2] has the same target. The experiment can be described thus: flow cytometry, CAR T cells incubated with soluble CD19-Fc (0.5 and 1.0 ug), anti-human IgG detection.
The target of experiment [3] is T1, human CD19 expressed on LO68 tumor cells (human, UniProt P15391 20-556).
T1 construct: whole, on cells; also called CD19+ LO68 tumor cells; CD19-engineered LO68 tumor cells
T1 sequence (looked up): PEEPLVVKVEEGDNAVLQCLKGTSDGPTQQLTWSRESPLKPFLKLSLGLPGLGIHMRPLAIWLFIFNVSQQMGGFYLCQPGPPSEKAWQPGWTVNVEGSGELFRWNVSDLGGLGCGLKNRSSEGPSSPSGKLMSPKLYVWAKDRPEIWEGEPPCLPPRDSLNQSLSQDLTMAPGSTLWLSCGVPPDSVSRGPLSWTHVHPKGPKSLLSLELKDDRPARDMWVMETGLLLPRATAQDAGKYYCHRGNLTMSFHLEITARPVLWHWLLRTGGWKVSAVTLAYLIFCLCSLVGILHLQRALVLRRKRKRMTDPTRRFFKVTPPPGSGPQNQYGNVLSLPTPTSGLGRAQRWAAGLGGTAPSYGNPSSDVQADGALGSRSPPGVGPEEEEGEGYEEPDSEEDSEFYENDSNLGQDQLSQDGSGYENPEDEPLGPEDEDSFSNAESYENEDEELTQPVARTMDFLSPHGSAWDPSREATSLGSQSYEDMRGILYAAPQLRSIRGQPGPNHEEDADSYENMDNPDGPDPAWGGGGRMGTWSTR
The experiment can be described thus: z-Movi microfluidic chip, CAR T cells on a monolayer of CD19+ LO68 tumor cells, force ramp, percent bound T cells. How it is done: CD19-engineered LO68 tumor cells were seeded in a z-Movi microfluidic chip and cultured for 16 hours. The next day, flow sorted CAR-T cells were serially flowed in the chips and incubated with the target cells for 5 minutes prior to initializing a 3-minute linear force ramp. Cell detachment was determined using post-experiment using image analysis techniques.
Increasing fluidic force was applied and the percentage of bound T-cells was determined (median, n=3). […] Data are presented as median rForce which is the relative force required to elicit cell detachment, calibrated to […] polystyrene beads. Since data were not normally distributed, they are presented as median rForce which is the relative force required to elicit cell detachment and calibrated to […] polystyrene beads. […] Data shown are mean±standard error (n=11 runs, 3 independent donors). […] For clarity, a single representative run for one healthy donor is plotted in which each dot represents a single cell.

B1: G02 second generation CAR (F-2 with the second glycine of FMC63 VH CDR3 substituted by alanine), expressed on human T cells (other)
chain: DIQMTQTTSSLSASLGDRVTISCRASQDISKYLNWYQQKPDGTVKLLIYHTSRLHSGVPSRFSGSGSGTDYSLTISNLEQEDIATYFCQQGNTLPYTFGGGTKLEITGGGGSGGGGSGGGGSEVKLQESGPGLVAPSQSLSVTCTVSGVSLPDYGVSWIRQPPRKGLEWLGVIWGSETTYYNSALKSRLTIIKDNSKSQVFLKMNSLQTDDTAIYYCAKHYYYGASYAMDYWGQGTSVTVSSAAAIEVEQKLISEEDLLDNEKSNGTIIHVKGKHLCPSPLFPGPSKPFWVLVVVGGVLACYSLLVTVAFIIFWVRSKRSRLLHSDYMNMTPRRPGPTRKHYQPYAPPRDFAAYRSRVKFSRSADAPAYQQGQNQLYNELNLGRREEYDVLDKRRGRDPEMGGKPRRKNPQEGLYNELQKDKMAEAYSEIGMKGERRRGKGHDGLYQGLSTATKDTYDALHMQALPPR
notes: CAR on transduced human T cells; also called FMC63(G02)
In the case of B1, the binding result in experiment [1] and in experiment [2] was “binds” throughout.

B2: Y05 second generation CAR (F-2 with the fifth tyrosine of FMC63 VH CDR3 substituted by alanine), expressed on human T cells (protein)
chain: DIQMTQTTSSLSASLGDRVTISCRASQDISKYLNWYQQKPDGTVKLLIYHTSRLHSGVPSRFSGSGSGTDYSLTISNLEQEDIATYFCQQGNTLPYTFGGGTKLEITGGGGSGGGGSGGGGSEVKLQESGPGLVAPSQSLSVTCTVSGVSLPDYGVSWIRQPPRKGLEWLGVIWGSETTYYNSALKSRLTIIKDNSKSQVFLKMNSLQTDDTAIYYCAKHYYYGGSYAMDAWGQGTSVTVSSAAAIEVEQKLISEEDLLDNEKSNGTIIHVKGKHLCPSPLFPGPSKPFWVLVVVGGVLACYSLLVTVAFIIFWVRSKRSRLLHSDYMNMTPRRPGPTRKHYQPYAPPRDFAAYRSRVKFSRSADAPAYQQGQNQLYNELNLGRREEYDVLDKRRGRDPEMGGKPRRKNPQEGLYNELQKDKMAEAYSEIGMKGERRRGKGHDGLYQGLSTATKDTYDALHMQALPPR
In the case of B2, the binding entry in experiment [1], in experiment [3] and in experiment [2] was “binds” each time.

B3: Y03 second generation CAR (F-2 with the third tyrosine of FMC63 VH CDR3 substituted by alanine), expressed on human T cells (other)
chain: DIQMTQTTSSLSASLGDRVTISCRASQDISKYLNWYQQKPDGTVKLLIYHTSRLHSGVPSRFSGSGSGTDYSLTISNLEQEDIATYFCQQGNTLPYTFGGGTKLEITGGGGSGGGGSGGGGSEVKLQESGPGLVAPSQSLSVTCTVSGVSLPDYGVSWIRQPPRKGLEWLGVIWGSETTYYNSALKSRLTIIKDNSKSQVFLKMNSLQTDDTAIYYCAKHYYAGGSYAMDYWGQGTSVTVSSAAAIEVEQKLISEEDLLDNEKSNGTIIHVKGKHLCPSPLFPGPSKPFWVLVVVGGVLACYSLLVTVAFIIFWVRSKRSRLLHSDYMNMTPRRPGPTRKHYQPYAPPRDFAAYRSRVKFSRSADAPAYQQGQNQLYNELNLGRREEYDVLDKRRGRDPEMGGKPRRKNPQEGLYNELQKDKMAEAYSEIGMKGERRRGKGHDGLYQGLSTATKDTYDALHMQALPPR
notes: CAR on transduced human T cells; also called FMC63(Y03)
Consider B3, for which the binding entry in experiment [1] was “binds”.

B4: Y01 second generation CAR (F-2 with the first tyrosine of FMC63 VH CDR3 substituted by alanine), expressed on human T cells (other)
chain: DIQMTQTTSSLSASLGDRVTISCRASQDISKYLNWYQQKPDGTVKLLIYHTSRLHSGVPSRFSGSGSGTDYSLTISNLEQEDIATYFCQQGNTLPYTFGGGTKLEITGGGGSGGGGSGGGGSEVKLQESGPGLVAPSQSLSVTCTVSGVSLPDYGVSWIRQPPRKGLEWLGVIWGSETTYYNSALKSRLTIIKDNSKSQVFLKMNSLQTDDTAIYYCAKHAYYGGSYAMDYWGQGTSVTVSSAAAIEVEQKLISEEDLLDNEKSNGTIIHVKGKHLCPSPLFPGPSKPFWVLVVVGGVLACYSLLVTVAFIIFWVRSKRSRLLHSDYMNMTPRRPGPTRKHYQPYAPPRDFAAYRSRVKFSRSADAPAYQQGQNQLYNELNLGRREEYDVLDKRRGRDPEMGGKPRRKNPQEGLYNELQKDKMAEAYSEIGMKGERRRGKGHDGLYQGLSTATKDTYDALHMQALPPR
notes: CAR on transduced human T cells; also called FMC63(Y01)
With B4, in experiment [1], the binding entry is “binds”.

B5: Y04 second generation CAR (F-2 with the fourth tyrosine of FMC63 VH CDR3 substituted by alanine), expressed on human T cells (other)
chain: DIQMTQTTSSLSASLGDRVTISCRASQDISKYLNWYQQKPDGTVKLLIYHTSRLHSGVPSRFSGSGSGTDYSLTISNLEQEDIATYFCQQGNTLPYTFGGGTKLEITGGGGSGGGGSGGGGSEVKLQESGPGLVAPSQSLSVTCTVSGVSLPDYGVSWIRQPPRKGLEWLGVIWGSETTYYNSALKSRLTIIKDNSKSQVFLKMNSLQTDDTAIYYCAKHYYYGGSAAMDYWGQGTSVTVSSAAAIEVEQKLISEEDLLDNEKSNGTIIHVKGKHLCPSPLFPGPSKPFWVLVVVGGVLACYSLLVTVAFIIFWVRSKRSRLLHSDYMNMTPRRPGPTRKHYQPYAPPRDFAAYRSRVKFSRSADAPAYQQGQNQLYNELNLGRREEYDVLDKRRGRDPEMGGKPRRKNPQEGLYNELQKDKMAEAYSEIGMKGERRRGKGHDGLYQGLSTATKDTYDALHMQALPPR
notes: CAR on transduced human T cells; also called FMC63(Y04)
For B5, the binding entry in experiment [1] and in experiment [2] was “binds” in each case.

For the origin of these results see patent publication US20220298223A1 (KING S COLLEGE LONDON, published 2022).
